Results deposited as PubChem BioAssay AID1259308 (NCATS, 2017)

- Purpose: 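Candidate targets for better recombinant protein yield in mammalian cells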 (primary screen)
- Cell system: human HEK293 embryonic kidney cells stably expressing firefly luciferase (HEK-CMV-Luc2-Hygro)
- Knock-down reagent: single siRNA against human genes, 0.8 pmol siRNA per well
- Duration: 72 h
- Measured: 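Reporter luminescence and viable-cell signal on separate replicate plates, given as percent of non-targeting control and median/MAD z-scores, plus per-cell luciferase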
- Direction: total luciferase, z-score and total luciferase, % of control: higher = more reporter protein produced
- Call rule: 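Active when the median/MAD z-score for overall luciferase is greater than 3; a gene was taken forward for validation with new siRNAs if at least two of its three siRNAs passed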
- Meaning of the calls: active = raised luciferase; inactive = no rise
Shown is one part, drawn at random, of about 59,000 reagents tested. About 1,510 of them (2.6%) count as active. 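Calls use total luciferase alone and ignore viability, so some active siRNAs may act by altering cell number.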 Reagents against one gene are numbered here. Not all columns of the deposit are shown. No sequences are given here.

Knock-down of CARD11 (caspase recruitment domain family member 11) #1 gave: total luciferase, z-score 0.462; total luciferase, % of control 91.1; inactive.
CARD11 (caspase recruitment domain family member 11) #2 showed total luciferase, z-score 1.23; total luciferase, % of control 106; inactive.
CARD11 (caspase recruitment domain family member 11) #3 showed total luciferase, z-score -1.19; total luciferase, % of control 58.2; inactive.
Depletion of ZCCHC7 (zinc finger CCHC-type containing 7) #1 gave: total luciferase, z-score -0.735; total luciferase, % of control 67.3; inactive.
Silencing of ZCCHC7 (zinc finger CCHC-type containing 7) #2 gave: total luciferase, z-score 0.173; total luciferase, % of control 85.3; inactive.
Against ZCCHC7 (zinc finger CCHC-type containing 7) #3, the entry reads total luciferase, z-score 0.822; total luciferase, % of control 98.2; inactive.
For PGGHG (protein-glucosylgalactosylhydroxylysine glucosidase) #1, the entry reads total luciferase, z-score 3.08; total luciferase, % of control 143; active.
Knock-down of PGGHG (protein-glucosylgalactosylhydroxylysine glucosidase) #2 gave: total luciferase, z-score 1.18; total luciferase, % of control 105; inactive.
For PGGHG (protein-glucosylgalactosylhydroxylysine glucosidase) #3, the entry reads total luciferase, z-score -0.929; total luciferase, % of control 63.4; inactive.
With knock-down of CNNM1 #1 the results were total luciferase, z-score 2.2; total luciferase, % of control 126; inactive.
Against CNNM1 #2, the values are total luciferase, z-score 0.118; total luciferase, % of control 84.2; inactive.
CNNM1 #3 gave total luciferase, z-score 0.496; total luciferase, % of control 91.7; inactive.
With knock-down of RPL29P12 (ribosomal protein L29 pseudogene 12) #1, the record shows total luciferase, z-score 0.595; total luciferase, % of control 93.7; inactive.
Depletion of RPL29P12 (ribosomal protein L29 pseudogene 12) #2 gave: total luciferase, z-score 0.365; total luciferase, % of control 89.1; inactive.
RPL29P12 (ribosomal protein L29 pseudogene 12) #3 showed total luciferase, z-score 0.517; total luciferase, % of control 92.2; inactive.
TRIM40 (tripartite motif containing 40) #1 scored total luciferase, z-score -0.984; total luciferase, % of control 62.3; inactive.
After knock-down of TRIM40 (tripartite motif containing 40) #2, the record shows total luciferase, z-score 0.859; total luciferase, % of control 99; inactive.
Against TRIM40 (tripartite motif containing 40) #3, the entry reads total luciferase, z-score -0.855; total luciferase, % of control 64.9; inactive.
For DNAH6 (dynein axonemal heavy chain 6) #1, the values are total luciferase, z-score 0.297; total luciferase, % of control 87.8; inactive.
After knock-down of DNAH6 (dynein axonemal heavy chain 6) #2, the record shows total luciferase, z-score -0.515; total luciferase, % of control 71.6; inactive.
Against DNAH6 (dynein axonemal heavy chain 6) #3, the values are total luciferase, z-score -0.527; total luciferase, % of control 71.4; inactive.
Against B3GNT2 #1, the values are total luciferase, z-score -0.92; total luciferase, % of control 63.6; inactive.
For B3GNT2 #2, the values are total luciferase, z-score -0.0222; total luciferase, % of control 81.4; inactive.
Knock-down of B3GNT2 #3 came out at: total luciferase, z-score 0.179; total luciferase, % of control 85.4; inactive.
For RPH3AL (rabphilin 3A like (without C2 domains)) #1, the values are total luciferase, z-score 0.103; total luciferase, % of control 83.9; inactive.
With knock-down of RPH3AL (rabphilin 3A like (without C2 domains)) #2, the screen gave total luciferase, z-score 0.774; total luciferase, % of control 97.3; inactive.
Depletion of RPH3AL (rabphilin 3A like (without C2 domains)) #3 resulted in: total luciferase, z-score -0.253; total luciferase, % of control 76.9; inactive.
For LYRM2 (LYR motif containing 2) #1, the entry reads total luciferase, z-score 0.356; total luciferase, % of control 89; inactive.
For LYRM2 (LYR motif containing 2) #2 the deposit lists total luciferase, z-score 1.11; total luciferase, % of control 104; inactive.
After knock-down of LYRM2 (LYR motif containing 2) #3, the screen gave total luciferase, z-score 1.37; total luciferase, % of control 109; inactive.
After knock-down of TARDBP (TAR DNA binding protein) #1 the results were total luciferase, z-score 0.279; total luciferase, % of control 87.4; inactive.
For TARDBP (TAR DNA binding protein) #2, the entry reads total luciferase, z-score -1.4; total luciferase, % of control 54.1; inactive.
TARDBP (TAR DNA binding protein) #3 showed total luciferase, z-score 1.01; total luciferase, % of control 102; inactive.

3 entries from above, reformatted.
Gene,siRNA no.,"total luciferase, z-score","total luciferase, % of control",outcome
RPL29P12 (ribosomal protein L29 pseudogene 12),2,0.365,89.1,inactive
RPL29P12 (ribosomal protein L29 pseudogene 12),3,0.517,92.2,inactive
TRIM40 (tripartite motif containing 40),1,-0.984,62.3,inactive
